In this experiment the target is T1, Syndecan-4 with a C-terminal V5 tag (human) (UniProt P31431).
T1 sequence: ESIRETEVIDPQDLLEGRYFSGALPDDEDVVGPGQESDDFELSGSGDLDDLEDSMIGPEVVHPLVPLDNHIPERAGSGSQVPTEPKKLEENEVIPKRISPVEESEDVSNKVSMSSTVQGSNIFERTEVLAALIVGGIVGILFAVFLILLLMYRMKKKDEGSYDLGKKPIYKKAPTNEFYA
The experiment in a line: co-IP; V5 antibody immunoprecipitation from lysates of HTR8 EVTs expressing SDC4-V5 or empty vector; cells treated with PMA for 20 minutes; mild lysis buffer (1% Triton X-100, 150 mM NaCl, 10 mM Tris, 1 mM EDTA, 1 mM EGTA, 0.5% NP-40); Protein G sepharose; mouse IgG1 as negative control; blot for PKCα.

Results are given in words; binding and its absence hold for the method and conditions named. Binding seen in cells or lysates may run through a third protein. Some entries that bind do so weakly or less than the wild type. Where a sequence is shown, tags or fusion partners need not be part of it.

Take “protein kinase C alpha (from UniProt P17252 1-672) (enzyme)”: the binding result was “binds”.

For the origin of these results see PMC6629623.
